Consider two molecules from US20020019040A1 (LEADD B V, published 2002).

Chains of the proteins cited; added tags and fusions are not shown. Lines headed by an entry give the natural chain unless they say otherwise; changes in a name come on top.
UniProt Q9NQ31: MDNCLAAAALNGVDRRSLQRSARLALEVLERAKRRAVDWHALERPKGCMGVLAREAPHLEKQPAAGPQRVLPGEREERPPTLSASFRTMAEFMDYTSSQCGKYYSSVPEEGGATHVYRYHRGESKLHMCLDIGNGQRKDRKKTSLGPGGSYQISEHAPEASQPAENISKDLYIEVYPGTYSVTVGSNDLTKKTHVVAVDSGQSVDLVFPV

Experiment [1] deals with T1, Apoptin (chicken anemia virus) (UniProt Q99152).
T1 sequence (looked up): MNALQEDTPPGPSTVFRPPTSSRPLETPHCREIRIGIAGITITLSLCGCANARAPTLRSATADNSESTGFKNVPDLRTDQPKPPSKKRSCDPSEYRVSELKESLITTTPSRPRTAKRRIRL
Nature of the experiment: co-immunoprecipitation from co-transfected Cos cells.

Experiment [2] deals with T1, Apoptin (chicken anemia virus). Put plainly: co-immunoprecipitation with 9E10 from co-transfected Cos cells, Western blot. (A western blot detects proteins with antibodies after separation by electrophoresis.)
Experiment [3] shares this target. Put plainly: co-immunoprecipitation with polyclonal anti-Apoptin antibody from co-transfected Cos cells, Western blot.
Experiment [4] concerns the target T2, AAP-3 (full-length sequence, myc-tagged) (human) (UniProt Q9Y3D0).
T2 sequence (looked up): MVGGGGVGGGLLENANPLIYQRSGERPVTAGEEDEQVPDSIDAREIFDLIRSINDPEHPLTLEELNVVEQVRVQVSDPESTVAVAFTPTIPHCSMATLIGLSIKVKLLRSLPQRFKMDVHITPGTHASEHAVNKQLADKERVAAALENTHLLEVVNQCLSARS
Nature of the experiment: co-immunoprecipitation after co-transfection, IP with AAP antibody, Western blot with 9E10.

These are yes or no findings as the source states them, for the method shown. In cells and extracts the contact can be indirect. Some results given as binding are weak or reduced against the parent protein; the word gives no strength. For some of these results: Where a sequence is shown, tags or fusion partners need not be part of it.

“Myc-tagged AAP-5 protein (partial clone, plasmid pMT2SM-AAP-5) (from UniProt Q9NQ31 89-210)”: the binding result in experiment [1], in experiment [2] and in experiment [3] was “binds” in each case.

B1: Myc-tagged AAP-5 protein (partial clone, plasmid pMT2SM-AAP-5) (protein)
chain: EQKLISEEDLPMAEFMDYTSSQCGKYYSSVPEEGGATHVYRYHRGESKLHMCLDIGNGQRKDRKKTSLGPGGSYQISEHAPEASQPAENISKDLYIEVYPGTYSVTVGSNDLTKKTHVVAVDSGQSVDLVFPV
Take B1: the binding result in experiment [4] is “binds”.
